Reference: patent EP0603240B1, “SAFENING HERBICIDAL PYRAZOLYLSULFONYLUREAS” (priority 1991, dated 1993)
At least one read-out could not be matched to a standard name with certainty.

Test system: barnyardgrass (Echinochloa crusgalli)
Test: Example 17, Procedure II: Herbicide No. 1 + vernolate (No. 11) with antidotes
Format: in vivo
[1] = Herbicide No.1 0.56 kg/ha + VERNAM 6.72 kg/ha, antidote 2.24 kg/ha
[2] = Herbicide No.1 0.56 kg/ha + VERNAM 6.72 kg/ha, antidote 8.96 kg/ha
[3] = Herbicide No.1 1.12 kg/ha + VERNAM 6.72 kg/ha, antidote 2.24 kg/ha
[4] = Herbicide No.1 1.12 kg/ha + VERNAM 6.72 kg/ha, antidote 8.96 kg/ha

SMILES: CC1(C)OC(c2ccco2)CN1C(=O)C(Cl)Cl (centres unmarked) [compound 15]
- % Injury BYG [1]: 99%
- % Injury BYG [2]: 99%
- % Injury BYG [3]: 99%
- % Injury BYG [4]: 99%

SMILES: C=CCN(CC=C)C(=O)C(Cl)Cl [compound 1]
- % Injury BYG [1]: 98%
- % Injury BYG [2]: 98%
- % Injury BYG [3]: 100%
- % Injury BYG [4]: 99%
